The results in this text go back to PubChem BioAssay AID328 (DTP/NCI, 2004).

The list does not hold the whole screen: it gathers tests that were run many times, whatever their T/C, doses with no T/C, and many T/C values between a quarter and a half above the control. Further doses and runs are listed elsewhere. T/C gives the treated animals as a percentage of the vehicle group. Some doses have a count of surviving animals in place of a T/C: the source holds a T/C of zero for them, seemingly a mark for toxic or unscored doses. Some doses without a T/C left all or most animals alive at the check, yet need not have been tolerated: survival well below the control is almost never listed, so the zero probably covers shortened survival too. Survivors were counted at the toxicity check, usually on the fifth day, unless a day is given; later deaths do not show. Schedules are NCI's codes, read here as Q, the interval in days (D) or hours (H), X, the number of doses. Some doses were run more than once; their values stand side by side, smallest first. For survival time, this PubChem deposit counts one and a half times the control or more as active, and values a quarter to a half above the control carry no call in these data; other NCI protocols may use other cut-offs. Some T/C values carry the count of animals alive at the toxicity check (mostly the fifth day); where none is given, no animal had died by that day.

The experiment concerns BDF1 mice, P388 leukemia ip, median survival T/C. Description: NCI In Vivo Anticancer Drug Screen. Data for tumor model P388 Leukemia (intraperitoneal) in B6D2F1 (BDF1) mice. The conditions noted are these: T/C endpoint: median survival time, higher T/C = longer survival. The gist of the method:
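Each value expresses how treatment altered survival: treated-mouse outcome over vehicle-mouse outcome, both groups bearing the transplanted tumour.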

Where [1] appears, read: dose: 400.0 mg/kg/injection, schedule: Q01DX009 (ip), vehicle: saline with Tween-80.
The mark [2] stands for this setting: dose: 400.0 mg/kg/injection, schedule: Q04DX003 (ip), vehicle: saline.
Where [3] appears, read: dose: 400.0 mg/kg/injection, schedule: Q01DX009 (ip), vehicle: Klucel (hydroxypropylcellulose) (HPC).
Setting [4] is: dose: 100.0 mg/kg/injection, schedule: Q01DX009 (ip), vehicle: saline with Tween-80.
Setting [5] is: dose: 200.0 mg/kg/injection, schedule: Q01DX009 (ip), vehicle: saline with Tween-80.
Where [6] appears, read: dose: 400.0 mg/kg/injection, schedule: Q04DX003 (ip), vehicle: saline with Tween-80.
Setting [7] is: dose: 50.0 mg/kg/injection, schedule: Q01DX009 (ip), vehicle: saline.
[8] abbreviates: dose: 100.0 mg/kg/injection, schedule: Q04DX003 (ip), vehicle: saline.
Where [9] appears, read: dose: 400.0 mg/kg/injection, schedule: Q04DX003 (ip), vehicle: Klucel (hydroxypropylcellulose) (HPC).
[10] abbreviates: dose: 200.0 mg/kg/injection, schedule: Q01DX009 (ip), vehicle: Klucel (hydroxypropylcellulose) (HPC).

Take `CCNC(C)(C)C(SSS)c1cccs1` (stereo not given): the survivor count under setting [1] is recorded as 2 of 6.
For `NC(=S)N/N=C/c1ccc(N)cn1`, the T/C (dose: 3.13 mg/kg/injection, schedule: Q01DX009 (ip), vehicle: saline with Tween-80) is 148 % of control [5 of 6 alive]. The survivor count is 4 of 6 and 6 of 6 (dose: 25.0 mg/kg/injection, schedule: Q01DX009 (ip), vehicle: saline with Tween-80); 0 of 6 (dose: 50.0 mg/kg/injection, schedule: Q01DX009 (ip), vehicle: saline with Tween-80).
With `NC(=O)NN=C1COC(c2ccccc2)OC1` (stereo not given), the survivor count runs as follows: (dose: 300.0 mg/kg/injection, schedule: Q01DX009 (ip), vehicle: saline) 0 of 6; under setting [2], 1 of 6.
Turning to `CC(=O)Nc1ccc(NC(=O)c2ccc([As](O)O)cc2)cc1`, the T/C (dose: 100.0 mg/kg/injection, schedule: Q01DX009 (ip), vehicle: Klucel (hydroxypropylcellulose) (HPC)) was 145 % of control. For the same compound, the survivor count under setting [3] is 2 of 6.
As for `CCOC(=O)C(C(=O)OCC)=C(C)C`, the T/C under setting [4] is 130 % of control and the T/C under setting [5] is 140 % of control.
With `Cn1c(N)c(N=Cc2ccc(Cl)cc2)c(=O)n(C)c1=O`, the survivor count under setting [6] is 3 of 6.
As to `CCC[As](CCC)SC1OC(COC(C)=O)C(OC(C)=O)C(OC(C)=O)C1OC(C)=O` (stereo not given), the T/C (dose: 100.0 mg/kg/injection, schedule: Q01DX009 (ip), vehicle: saline + alcohol) is 125 % of control. Also, the survivor count is, setting by setting: (dose: 200.0 mg/kg/injection, schedule: Q01DX009 (ip), vehicle: saline + alcohol) 2 of 6; (dose: 400.0 mg/kg/injection, schedule: Q01DX009 (ip), vehicle: saline + alcohol) 0 of 6.
Regarding `CCOC(=O)C1CC1C(=O)O` (stereo not given), under setting [2], the survivor count is 6 of 6.
In the case of `CC(C)CCC[C@@H](C)[C@H]1CC[C@H]2[C@@H]3CC=C4C[C@@H](OC(=O)Cc5ccc(N(CCCl)CCCl)cc5)CC[C@]4(C)[C@H]3CC[C@]12C`, the survivor count was 6 of 6 (dose: 3.12 mg/kg/injection, schedule: Q01DX010 (sc), vehicle: steroid suspending solution) and 6 of 6 (dose: 25.0 mg/kg/injection, schedule: Q01DX010 (sc), vehicle: steroid suspending solution). Further, the T/C (dose: 200.0 mg/kg/injection, schedule: Q01DX010 (oral), vehicle: steroid suspending solution) is 131 % of control.
`O=[N+]([O-])c1ccccc1N=N/C(Cc1ccccc1)=N\Nc1ccccc1`: the survivor count under setting [3] is on record as 4 of 6.
Regarding `NNC12CC3CC(CC(C3)C1)C2`, the survivor count under setting [7] is recorded as 0 of 6; the survivor count (dose: 100.0 mg/kg/injection, schedule: Q01DX009 (ip), vehicle: saline) is on record as 0 of 6; the survivor count under setting [8] is 6 of 6.
`CC(C)SC=O`: the T/C (dose: 200.0 mg/kg/injection, schedule: Q01DX009 (ip), vehicle: saline) is 136 % of control.
`COC(=O)c1c2ccccc2cn1Cc1ccccc1`: under setting [4], the survivor count is reported as 6 of 6.
Consider `CCOCCN1CCN(CCCN2c3ccccc3Sc3ccc(C(F)(F)F)cc32)CC1`, for which, under “dose: 12.5 mg/kg/injection, schedule: Q04DX003 (ip), vehicle: saline”, the T/C was 138 % of control [5 of 6 alive]. Besides, the survivor count is on record as 5 of 6 (dose: 25.0 mg/kg/injection, schedule: Q04DX003 (ip), vehicle: saline); 4 of 6 (dose: 50.0 mg/kg/injection, schedule: Q04DX003 (ip), vehicle: saline); 4 of 7 (dose: 50.0 mg/kg/injection, schedule: Q04DX003 (ip), vehicle: water); 0 of 7 (dose: 100.0 mg/kg/injection, schedule: Q04DX003 (ip), vehicle: water); 0 of 7 (dose: 200.0 mg/kg/injection, schedule: Q04DX003 (ip), vehicle: water); 0 of 7 (dose: 400.0 mg/kg/injection, schedule: Q04DX003 (ip), vehicle: water).
With `Cn1c(=O)c2[nH]c(CCCc3nc4c([nH]3)c(=O)n(C)c(=O)n4C)nc2n(C)c1=O`, the survivor count by setting is: (dose: 25.0 mg/kg/injection, schedule: Q01DX009 (ip), vehicle: saline) 6 of 6; under setting [7], 1 of 6; (dose: 200.0 mg/kg/injection, schedule: Q04DX003 (ip), vehicle: saline) 3 of 6.
Consider `C=C(NC(C)=O)C(=O)O`, for which the survivor count by setting is: (dose: 200.0 mg/kg/injection, schedule: Q04DX003 (ip), vehicle: Klucel (hydroxypropylcellulose) (HPC)) 6 of 6; under setting [9], 6 of 6.
For the compound `O=S1(=O)OCc2ccccc21`, the survivor count runs as follows: under setting [10], 2 of 6; under setting [9], 4 of 6.
For the compound `Cn1c(=O)c2[nH]c(CN(CCCl)CCCl)nc2n(C)c1=O`, the T/C is, setting by setting: (dose: 1.6 mg/kg/injection, schedule: Q01DX009 (ip), vehicle: saline with Tween-80) 146 % of control; (dose: 3.0 mg/kg/injection, schedule: Q04DX003 (ip), vehicle: saline with Tween-80) 133 % of control; (dose: 18.7 mg/kg/injection, schedule: Q01DX009 (ip), vehicle: saline with Tween-80) 140 % of control. The survivor count by setting is: (dose: 100.0 mg/kg/injection, schedule: Q04DX003 (ip), vehicle: saline with Tween-80) 6 of 6; (dose: 200.0 mg/kg/injection, schedule: Q04DX003 (ip), vehicle: saline with Tween-80) 0 of 6; under setting [6], 0 of 6.
In the case of `O=C(Nc1ccc(NC(=O)c2ccccc2)c(Sc2ccccc2)c1Sc1ccccc1)c1ccccc1`, the survivor count (dose: 200.0 mg/kg/injection, schedule: Q01DX001 (ip), vehicle: saline with Tween-80) was 6 of 6.
`O=c1oc2c3ccccc3c3ccccc3c2o1`: the survivor count reads like this: under setting [10], 4 of 6; under setting [3], 0 of 6.
`CC[C@H]1CN2CCc3cc(OC)c(OC)cc3[C@@H]2C[C@@H]1C[C@H]1NCCc2cc(O)c(OC)cc21`: the T/C reads like this: (dose: 0.2 mg/kg/injection, schedule: Q01DX010 (ip), vehicle: saline) 127 % of control; (dose: 0.5 mg/kg/injection, schedule: Q01DX010 (ip), vehicle: saline) 136 % of control. Also, the survivor count (dose: 2.0 mg/kg/injection, schedule: Q01DX010 (ip), vehicle: saline) is given as 6 of 6; the survivor count (dose: 4.0 mg/kg/injection, schedule: Q01DX010 (ip), vehicle: saline) is 0 of 6 and 6 of 6; the survivor count (dose: 16.0 mg/kg/injection, schedule: Q01DX010 (ip), vehicle: saline) is given as 5 of 6.
With `OC(CI)C(O)C(O)C(O)CI` (stereo not given), the T/C runs as follows: (dose: 132.0 mg/kg/injection, schedule: Q01DX009 (ip), vehicle: saline with Tween-80) 140 % of control; under setting [5], 125 % of control.
Consider `CC1(C)CC2(C)OC2C2(C1)N=NC(=Nc1ccccc1)O2` (stereo not given), for which the T/C was 126 % of control under setting [4] and 142 % of control [5 of 6 alive] under setting [5].
Turning to `C#CCOCC1CN(C)C(=O)O1` (stereo not given), the survivor count was 6 of 6 under setting [8] and 6 of 6 under setting [2].
For the compound `CCOC1=C(N2CC2)C(=O)C(OCC)=C(N2CC2)C1=O`, the T/C is 132 % of control (dose: 0.15 mg/kg/injection, schedule: Q01DX009 (ip), vehicle: saline with Tween-80); 127 % of control (dose: 0.31 mg/kg/injection, schedule: Q04DX003 (ip), vehicle: saline); 127 % of control (dose: 1.25 mg/kg/injection, schedule: Q04DX003 (ip), vehicle: saline). Also, the survivor count (dose: 5.0 mg/kg/injection, schedule: Q04DX003 (ip), vehicle: saline) is 0 of 6; the survivor count (dose: 10.0 mg/kg/injection, schedule: Q04DX003 (ip), vehicle: saline) is reported as 0 of 6; the survivor count (dose: 20.0 mg/kg/injection, schedule: Q04DX003 (ip), vehicle: saline) is 0 of 6.
On to `N#CC1(c2ccc(Cl)cc2)CCC1`, for which the survivor count under setting [1] is 5 of 6.
